# From PubChem BioAssay AID504467 (National Center for Advancing Translational Sciences (NCATS), 2011)
# Screen size: about 330,000 compounds; about 7,700 (2.3%) were called active. The inconclusive results got no clear call from the source; some entries with a clear call stand among them for comparison. Calls come from the whole dose curve; as a rule, active = well fitted inhibition curve with a large enough effect; inconclusive = small, poorly fitted or top-dose-only effect, or effect the other way; inactive = flat fitted curve, though single readings scatter. Where the call is inconclusive, the potency comes from a doubtful curve fit.
# Experiment: qHTS screen for small molecules that inhibit ELG1-dependent DNA repair in human embryonic kidney (HEK293T) cells expressing luciferase-tagged ELG1; note: nearly all actives have a fitted effect of over 55% in size
# Details: HEK293T ELG1-luciferase reporter, luminescence, 16 h, DNA damage induced by 5-fluorouridine; activity change, negative = inhibition: at 46.1 µM (top of the series)
# How it was run: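 Luminescence from the luciferase reporter, measured 30 min after ONE-Glo reagent at room temperature, was the read-out. Beforehand, 2,000 cells per well were exposed for 16 hr at 37 °C to 5-fluorouridine together with compound or vehicle.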
# % is set by controls: 0 for no effect and ±100 for the full control effect; potency is the fitted concentration of half-maximal effect.
SMILES,Potency,"activity change, negative = inhibition"
C/C(=N\NC(=O)c1c(Cl)c(C)nn1C)c1ccc(NC(=O)c2ccncc2)cc1,"inconclusive: 18.4 µM [inhibitor, partial curve]",
COc1cc(C2CC(=O)Nc3ccccc3S2)cc(OC)c1OC (centres undefined),active: 10 µM,
COc1ccc(C(=O)NNC(=O)c2cccc(F)c2)cc1,"inconclusive: 11.6 µM [activator, partial curve]",
Cc1ccc(NC(=S)Nc2ccc(Cl)c(Cl)c2)c(OC(F)F)c1,"inconclusive: 29.1 µM [inhibitor, single point]",
Cc1ccc(-c2cc(C(=O)NCCCN3CCCC3)c3ccccc3n2)cc1C,"inconclusive: 14.6 µM [activator, partial curve]",
CSc1ccc(/C=C/C(=O)NC(=O)c2ccccc2O)cc1,"inconclusive: 20.6 µM [activator, partial curve]",
CCOc1cc(/C=N/N=C/c2ccc(O)c(OCC)c2)ccc1O,,inactive: -8.95%
C=CCOc1ccc(/C=N\NC(N)=S)cc1,"inconclusive: 7.3 µM [inhibitor, partial curve]",
Cc1cc(C(=O)N/N=C/c2cccc([N+](=O)[O-])c2)c(C)n1-c1ccccc1,"inconclusive: 3.66 µM [activator, single point]",
Cc1onc(-c2c(F)cccc2Cl)c1C(=O)Nc1ccccc1N1CCOCC1,"inconclusive: 23.1 µM [inhibitor, partial curve]",
CC1CCC(NC(=O)c2ccc(N3CCCC3=O)cc2)CC1 (centres undefined),"inconclusive: 23.1 µM [activator, partial curve]",
COc1ccc2c(c1)c(=O)oc1cc(OCC(=O)N3CCCC(C)C3)ccc12 (centres undefined),"inconclusive: 29.1 µM [inhibitor, single point]",
CCCCCCCCNC(=O)c1ccc(C)cc1,,inactive: 17.3%
CCCCn1c(-c2c(Cl)c(C)nn2C)n[nH]c1=S,"inconclusive: 6.51 µM [inhibitor, partial curve, poor fit]",
FC(F)(F)c1cnc2c(-c3ccccc3)n[nH]c2c1,"inconclusive: 18.3 µM [activator, partial curve]",
CCN(CC)C(=O)C(=O)N/N=C/c1cccs1,"inconclusive: 25.9 µM [activator, single point]",
Cc1c(C(=O)NCc2cccnc2)oc2ccc(S(=O)(=O)N3CCCCC3)cc12,active: 5.8 µM,
COc1cc(NC(=O)/C=C/c2ccccc2[N+](=O)[O-])cc(OC)c1,,inactive: 1.7%
O=C(CSc1cn(CCNC(=O)c2ccccc2)c2ccccc12)NCc1ccco1,"inconclusive: 29.1 µM [inhibitor, single point]",

# Nothing new here: entries from further up.
SMILES,Potency,"activity change, negative = inhibition"
CSc1ccc(/C=C/C(=O)NC(=O)c2ccccc2O)cc1,"inconclusive: 20.6 µM [activator, partial curve]",
CCOc1cc(/C=N/N=C/c2ccc(O)c(OCC)c2)ccc1O,,inactive: -8.95%
